PubChem BioAssay AID1224830 | NIAID | 2016

- Screen: 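Regulators of TLR4 signalling towards TNF-alpha in macrophage-like cells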 (primary screen)
- System: human THP-1 monocytic leukaemia cells, TNF dual-luciferase reporter clone, PMA-differentiated to macrophage-like cells
- Reagents: siRNA pool against human genes, 50 nM
- Time to read-out: LPS for 4 h, given about 3 days after siRNA transfection
- Challenge: bacterial LPS (TLR4 ligand), 10 ng/ml
- Detection: 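TNF firefly reporter luminescence divided by renilla, normalised to the plate median, then turned into a robust z-score for each replicate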
- Scale: TNF reporter robust z-score: higher = stronger TNF reporter response to LPS
- Active means: 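a well is active when its z-score exceeds 2.8 or falls below -1.5; control wells carry no call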
The whole screen tested about 18,000 reagents; this is an unselected part. Of all reagents, about 2,900 (16%) got an active call. 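Calls are made per well; low scores hint the gene aids the LPS response, high scores that it dampens it.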 Reagents against one gene are numbered here. Repeated entries: four replicate wells of each siRNA pool. Reagent sequences are not shown.

WDHD1 (WD repeat and HMG-box DNA binding protein 1) — TNF reporter robust z-score: -0.51; call: inactive
WDHD1 (WD repeat and HMG-box DNA binding protein 1) — TNF reporter robust z-score: -0.59; call: inactive
WDHD1 (WD repeat and HMG-box DNA binding protein 1) — TNF reporter robust z-score: -0.96; call: inactive
WDHD1 (WD repeat and HMG-box DNA binding protein 1) — TNF reporter robust z-score: -0.16; call: inactive
TMEM109 (transmembrane protein 109) — TNF reporter robust z-score: -1.1; call: inactive
TMEM109 (transmembrane protein 109) — TNF reporter robust z-score: 0.59; call: inactive
TMEM109 (transmembrane protein 109) — TNF reporter robust z-score: -0.89; call: inactive
TMEM109 (transmembrane protein 109) — TNF reporter robust z-score: 0.04; call: inactive
SEPTIN4 (septin 4) #1 — TNF reporter robust z-score: -1.17; call: inactive
SEPTIN4 (septin 4) #1 — TNF reporter robust z-score: -0.8; call: inactive
SEPTIN4 (septin 4) #1 — TNF reporter robust z-score: -0.45; call: inactive
SEPTIN4 (septin 4) #1 — TNF reporter robust z-score: -0.4; call: inactive
SEPTIN4 (septin 4) #2 — TNF reporter robust z-score: 0.28; call: inactive
SEPTIN4 (septin 4) #2 — TNF reporter robust z-score: 1.68; call: inactive
SEPTIN4 (septin 4) #2 — TNF reporter robust z-score: 1.05; call: inactive
SEPTIN4 (septin 4) #2 — TNF reporter robust z-score: 0.74; call: inactive
APLF (aprataxin and PNKP like factor) — TNF reporter robust z-score: 0.13; call: inactive
APLF (aprataxin and PNKP like factor) — TNF reporter robust z-score: -0.85; call: inactive
APLF (aprataxin and PNKP like factor) — TNF reporter robust z-score: -0.37; call: inactive
APLF (aprataxin and PNKP like factor) — TNF reporter robust z-score: 1.07; call: inactive
DCHS1 (dachsous cadherin-related 1) — TNF reporter robust z-score: 0.42; call: inactive
DCHS1 (dachsous cadherin-related 1) — TNF reporter robust z-score: 2; call: inactive
DCHS1 (dachsous cadherin-related 1) — TNF reporter robust z-score: 2.59; call: inactive
DCHS1 (dachsous cadherin-related 1) — TNF reporter robust z-score: 1.65; call: inactive
TSR2 (TSR2 ribosome maturation factor) — TNF reporter robust z-score: 0.87; call: inactive
TSR2 (TSR2 ribosome maturation factor) — TNF reporter robust z-score: 1.4; call: inactive
TSR2 (TSR2 ribosome maturation factor) — TNF reporter robust z-score: 2.48; call: inactive
TSR2 (TSR2 ribosome maturation factor) — TNF reporter robust z-score: 2.12; call: inactive
IL17C (interleukin 17C) — TNF reporter robust z-score: -0.91; call: inactive
IL17C (interleukin 17C) — TNF reporter robust z-score: -0.4; call: inactive
IL17C (interleukin 17C) — TNF reporter robust z-score: 0.47; call: inactive
IL17C (interleukin 17C) — TNF reporter robust z-score: 1.33; call: inactive

5 entries already listed, sorted by “TNF reporter robust z-score”, high to low.
SEPTIN4 (septin 4) #2 — TNF reporter robust z-score: 1.68; call: inactive
SEPTIN4 (septin 4) #2 — TNF reporter robust z-score: 0.28; call: inactive
SEPTIN4 (septin 4) #1 — TNF reporter robust z-score: -0.4; call: inactive
SEPTIN4 (septin 4) #1 — TNF reporter robust z-score: -0.45; call: inactive
SEPTIN4 (septin 4) #1 — TNF reporter robust z-score: -0.8; call: inactive
